In US20150182675A1, “Ascorbic Acid-Eluting Implantable Medical Devices, Systems, and Related Methods” (South Dakota Board of Regents, priority 2012, published 2015):
At least one compound was matched to its structure with a doubt left.

Experiments:
Type in all cases: cell-based
smooth muscle cells [1] = assay: FDA staining and fluorescence microscopy of smooth muscle cells (Example Nine); conditions: FDA staining, days 1 to 7
Excerpt: Example 9 provides a qualitative characterization of the Example Eight results using flurorescence microscopy. More specifically, the growth of smooth muscle cells in the presence of three different treatments (ascorbic acid, paclitaxel, and sirolimus) was investigated by staining the live cells with fluorescein diacetate (FDA). The FDA-stained live cells were then imaged using flurorescence microscopy on day 1, day 3, day 5, and day 7 of culture. On each day, a determination of growth (viability and proliferation) of smooth muscle cells was made.

smooth muscle cells [2] = assay: Resazurin fluorometric assay of smooth muscle cell cultures (Example Eight)
Procedure: In Example 8, a quantitative resazurin fluorometric assay was used. A solution of alamarBlue® from a kit purchased from Biotium Inc. (in Hayward, Calif.) was added to the smooth muscle cell cultures which were already treated with ascorbic acid, sirolimus, or paclitaxel. A control lacking any therapeutic agent was also included. After respective time points (1, 3, 5, and 7 days), the fluorescence of the solution was measured using a microplate reader. The collected data is provided as relative fluorescence units (RFU) vs. time for all the three groups (ascorbic acid, sirolimus, and paclitaxel) of samples.

endothelial cells [3] = assay: Phase contrast microscopy of endothelial cell morphology (Example Six); conditions: 100 μg added, day 7, phase contrast
Procedure: In Example 6, 100 μg of L-ascorbic acid, 100 μg of sirolimus, and 100 μg paclitaxel were added to separate endothelial cell cultures. A control cell culture was also provided in which no agent was added. The effects of L-AA, SIR, and PAT on the growth of endothelial cells was investigated by taking phase contrast images of cells after 7 days using an Axiovert 200 M inverted microscopy (Carl Zeiss) in the bright field imaging mode and examining the cell morphology.

endothelial cells [4] = assay: FDA staining and fluorescence microscopy of endothelial cell cultures (Example One)
Procedure: In Example 1, […] of L-ascorbic acid, 100 μg of sirolimus, and 100 μg paclitaxel were added to separate endothelial cell cultures (15,000 cells per well). A control cell culture was also provided in which no agent was added. The endothelial cell adhesion in the culture well was investigated by staining the live cells with fluorescein diacetate (FDA). The FDA-stained live cells were then imaged using fluorescence microscopy on day one, day 3, day five, and day seven of culture. After five days, a determination of the spreading of endothelial cells was made. After seven days, a determination of growth (viability and proliferation) of endothelial cells was made.

smooth muscle cells [5] = assay: Phase contrast microscopy of smooth muscle cell morphology (Example Ten); conditions: day 7, phase contrast
Excerpt: Example 10 provides a further qualitative characterization of the Example Eight results using phase contrast microscopy. That is, the effects of L-AA, SIR, and PAT on the growth of smooth muscle cells was investigated by taking phase contrast images of cells after 7 days using an Axiovert 200 M inverted microscopy (Carl Zeiss) in the bright field imaging mode and examining the cell morphology.

## CO[C@H]1C[C@@H]2CC[C@@H](C)[C@@](O)(O2)C(=O)C(=O)N2CCCC[C@H]2C(=O)O[C@H]([C@H](C)C[C@@H]2CC[C@@H](O)[C@H](OC)C2)CC(=O)[C@H](C)/C=C(\C)[C@@H](O)[C@@H](OC)C(=O)[C@H](C)C[C@H](C)/C=C/C=C/C=C/1C [sirolimus]
Smooth muscle cells [1]
  smooth muscle cell growth from one time point to the other: significantly inhibited
Smooth muscle cells [2]; day 1
  number of smooth muscle cells in comparison to the control: significantly lesser number of cells
Smooth muscle cells [2]; day 3
  smooth muscle cell growth vs control: significantly inhibited the cell growth
Smooth muscle cells [2]; day 5 (similar on day 7)
  number of smooth muscle cells vs ascorbic acid treatment: lesser numbers of cells than that of the ascorbic acid treatment
Smooth muscle cells [2]; days 1 to 7
  order of SMC viability and proliferation (decreasing): Control>>ascorbic acid>sirolimus=paclitaxel
Endothelial cells [3]
  endothelial cell morphology: uncharacteristic oval or round shape with no spreading morphology
Endothelial cells [4]; 100 μg added, 15,000 cells per well, day 1
  endothelial cell adhesion: poor
Endothelial cells [4]; 100 μg added, day 5
  spreading of endothelial cells: poor
Endothelial cells [4]; 100 μg added, day 7
  growth (viability and proliferation) of endothelial cells: poor
Smooth muscle cells [5]
  smooth muscle cell morphology and spreading: not spreading and only very few cells were spindle-shaped
